Assay results reported in patent US6548307B2, “Determination of logP coefficients via a RP-HPLC column” (Pfizer Inc., priority 2000, dated 2003).

Assay: physchem
Description: The mobile phase consisted, in all cases, of 20 mM MOPS buffer at pH 7.4, and methanol in varying proportions from 70 to 15% v/v. […] The capacity factors data (k′=(tR−t0)/t0) obtained at various amounts of methanol were then extrapolated to 0% methanol and reported as log k′w, using a linear procedure. […] Injections of pure methanol were used to determine t0, i.e. the dead time, while tR has the usual meaning of the retention time for the analyte.
All the chromatographic runs were performed on a HP-1100 HPLC ChemStation at the ambient temperature. The columns used were Supelcosil LC-ABZ, 5μm, 4.6×50 mm. […] Columns having different silica bond lots were tested to ensure reproducibility. Samples were dissolved in 1:1 methanol/water at a concentration of 10-30 μg/mL. The flow rate was 0.5, 1 or 2 mL/min, depending on the lipophilicity range. Three lipophilicity ranges were established using, in all cases, three points for the extrapolation to k′w, as described in the table below.
The samples were placed in the appropriate range by estimating their lipophilicity via computed values, or by prior experience with a given class. In each case the entire group of samples was run before the column is equilibrated to the next condition, in an automated fashion, and the initial estimation need not be very accurate. […]

In the case of `COC(=O)C1=C(C)NC(C)=C(C(=O)OC)C1c1ccccc1[N+](=O)[O-]` [Nifedipine], the chromatographic logP is reported as 2.86.
